Results: US12251447B2, “Combined formulation comprising four linked cytotoxic T lymphocyte (CTL) epitopes and a PD-1 pathway inhibitor and methods of use thereof to treat cancer” (Taiho Pharmaceutical Co., Ltd., priority 2018, dated 2025)
Part of at least one peptide drawing is inferred or uncertain, most often the ends. Ends that are not written are not given here.

Experiments:
Assay type in all cases: in vivo
[1] = tested on: B16F10.A24/SART2^93-101 cell line; assay: Example 6: TPV07 or TPV08 and anti-mouse PD-1 antibody in combination, B16F10.A24/SART2^93-101 cell line subcutaneously transplanted model; details: for antitumor effect (value of TV compared): 18 days after cell transplantation, vs control group, combination vs single-drug group; for T/C (rate of relative change in tumor volume) / TV(mean ± SE): 18 days after transplantation; for T/C (rate of relative change in tumor volume): average TV of drug group / average TV of control group x 100; for TV(mean ± SE): group average, peptide emulsion s.c. Days 0, 7, 14, antibody 100 μg/body i.p. Day 21; for Tumor Free (%): 56 days after transplantation, proportion of tumor-free mice; for tumor growth inhibitory effect (change in tumor volume after cell transplantation, FIGS. 8 and 9): as compared with the control group
[2] = tested on: B16F10.A24/SART2^93-101 cell line; assay: Example 4: TPV06 and anti-mouse PD-1 antibody in combination, B16F10.A24/SART2^93-101 cell line subcutaneously transplanted model
[3] = tested on: B16F10.A24/SART2^93-101 cell line; assay: Example 5: TPV06 and anti-mouse PD-L1 antibody in combination, B16F10.A24/SART2^93-101 cell line subcutaneously transplanted model
[4] = 18 days after cell transplantation, vs control group, combination vs single-drug group
[5] = 18 days after transplantation, average TV of drug group / average TV of control group x 100
[6] = 57 days after transplantation, proportion of tumor-free mice
[7] = as compared with the control group

In the case of “DYSARWNEIRRQIRPIFSNRRRVYDYNCHVDLRRASLDSDPWV [TPV07, PEP5-RR-PEP9-RR-PEP6-RR-PEP2]”, the “antitumor effect (value of TV compared)” value [1] is reported as “antitumor effect”, the “T/C (rate of relative change in tumor volume)” value [1] is reported as 6.8% and the “TV(mean ± SE)” value [1] is reported as 58.2 ± 24.4 mm^3. For the same sequence, the “Tumor Free (%)” value [1] was 13.3% and the “tumor growth inhibitory effect (change in tumor volume after cell transplantation, FIGS. 8 and 9)” value [1] was “high tumor growth inhibitory effect”.
“DYSARWNEIRRQIRPIFSNRRRVYDYNCHVDLRRILEQSGEWWK [TPV08, PEP5-RR-PEP9-RR-PEP6-RR-PEP10]” was tested, and the “antitumor effect (value of TV compared)” value [1] was “antitumor effect”, the “T/C (rate of relative change in tumor volume)” value [1] was 15.2% and the “TV(mean ± SE)” value [1] was 129.7 ± 67.0 mm^3. The “Tumor Free (%)” value [1] was 6.7% and the “tumor growth inhibitory effect (change in tumor volume after cell transplantation, FIGS. 8 and 9)” value [1] was “high tumor growth inhibitory effect”.
In the case of “DYSARWNEIRRQIRPIFSNRRRVYDYNCHVDLRRLLQAEAPRL [TPV06, PEP5-RR-PEP9-RR-PEP6-RR-PEP4]”, the “antitumor effect (value of TV compared)” value [2, 4] is reported as “antitumor effect”, the “T/C (rate of relative change in tumor volume)” value [2, 5] is reported as 20.9% and the “TV(mean ± SE)” value ([2]; 18 days after transplantation, group average, B2m^tm2(HLA-A24/H-2Db/B2M)Tai mice, peptide emulsion s.c. Days 0, 7, 14, antibody 100 μg/body i.p. Day 21) is reported as 247.45 ± 89.16 mm^3. For the same sequence, the “Tumor Free (%)” value [2, 6] was 13.3%, the “tumor growth inhibitory effect (change in tumor volume after cell transplantation, FIG. 6)” value [2, 7] was “tumor growth inhibitory effect” and the “antitumor effect (value of TV compared)” value [3, 4] was “antitumor effect”. The “T/C (rate of relative change in tumor volume)” value [3, 5] was 32.8%, the “TV(mean ± SE)” value ([3]; 18 days after transplantation, group average, peptide emulsion s.c. Days 0, 7, 14, antibody 200 μg/body i.p. Day 21) was 205.8 ± 73.9 mm^3 and the “Tumor Free (%)” value [3, 6] was 0.0%. For the same sequence, the “tumor growth inhibitory effect (change in tumor volume after cell transplantation, FIG. 7)” value [3, 7] was “tumor growth inhibitory effect”.
